For assay [1], the system named is Staphylococcus aureus. The experiment in a line: Antimicrobial activity against Staphylococcus aureus after 18 hrs by microdilution method. It is filed as functional. (In general: Dilution methods test growth across graded concentrations, often in twofold steps.)
In assay [2] the test system is Staphylococcus aureus. In words: Antimicrobial activity against methicillin-resistant Staphylococcus aureus after 18 hrs by microdilution method. It is filed as functional.

The structures appear in SMILES notation. Values after ≈ are worked out from the molar mass of the structure shown.

Consider `O=C(O)c1cn(C2CC2)c2cc(N3CCNCC3)c(F)cc2c1=O` [CIPROFLOXACIN], for which the values for the MIC in the assay with Staphylococcus aureus [1] and against Staphylococcus aureus [2] were 0.4 µg/mL (≈ 1.21 µM) and 12.5 µg/mL (≈ 37.7 µM), respectively.

What is called MIC is the least concentration at which growth counts as inhibited.

The record behind these values is ChEMBL document CHEMBL3351437, “Ralfuranone Is Produced by an Alternative Aryl-Substituted γ-Lactone Biosynthetic Route in Ralstonia solanacearum” (2014).
